Our source for the binding values is paper PMC3742741 (PLoS ONE, 2013).

No constants are given. Whether binding was seen depends on the method and setting. Sequences can lack the tags named with a protein.

The target in assay [1] is T1, His-tagged full-length C-terminal cytoplasmic domain of BAP31 (residues 124-242) (human) (UniProt P51572).
T1 sequence: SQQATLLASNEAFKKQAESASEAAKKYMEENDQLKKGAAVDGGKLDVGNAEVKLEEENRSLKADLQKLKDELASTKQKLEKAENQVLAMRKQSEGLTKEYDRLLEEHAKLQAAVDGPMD
The experiment in a line: pull-down; IMAC pull-down, His-tagged protein adsorbed to Ni-NTA beads, untagged protein run over in excess, 20 mM Na-P pH 7, 150 mM NaCl, 0.5 mM TCEP, 30 mM imidazole wash, 500 mM imidazole elution, 4 °C; both purified.

Assay [2] addresses T2, His-tagged full-length C-terminal cytoplasmic domain of BAP29 (residues 125-237) (human) (UniProt Q9UHQ4).
T2 sequence: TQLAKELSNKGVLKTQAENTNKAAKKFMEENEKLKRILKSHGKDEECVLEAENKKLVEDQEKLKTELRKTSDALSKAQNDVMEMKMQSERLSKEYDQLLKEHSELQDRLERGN
The assay is described as above.

For assay [3], the target named is T3, BAP31 vDED (variant of death effector domain of human BAP31, residues 168-233), untagged (human) (UniProt P51572).
T3 sequence: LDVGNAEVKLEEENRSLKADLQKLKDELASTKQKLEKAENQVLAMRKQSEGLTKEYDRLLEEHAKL
The experiment in a line: SEC; analytical gel filtration, Superdex 200 5/150 GL, proteins alone or together at 75 µM, pH 4.2, 4 °C; both purified.

The target of assay [4] is T3, BAP31 vDED (variant of death effector domain of human BAP31, residues 168-233), untagged (human). The experiment in a line: SEC; analytical gel filtration, Superdex 200 5/150 GL, proteins alone or together at 75 µM, pH 7.0, 4 °C; both purified.
Assay [5] deals with BAP29 vDED (variant of death effector domain of human BAP29, residues 168-229), untagged (human) (UniProt Q9UHQ4). The experiment in a line: cross-linking; 5.5 mM DMS, protein at 0.5, 1.5 and 4.0 mg/mL, 20 mM HEPES pH 7.5, 150 mM NaCl (20 mM TCEP in the dialysis buffer for BAP29), 1 hour at room temperature, SDS-PAGE; both purified.
For assay [6] the target is unchanged. The experiment in a line: cross-linking; 0.024% glutaraldehyde, ~0.5 mg/mL protein, 20 mM HEPES pH 7.5, 150 mM NaCl, 20 mM TCEP in the dialysis buffer, room temperature, quenched at various time points, SDS-PAGE; both purified.
The target of assay [7] is T4, His-tagged BAP31 vDED (residues 168-233) (human) (UniProt P51572).
T4 sequence: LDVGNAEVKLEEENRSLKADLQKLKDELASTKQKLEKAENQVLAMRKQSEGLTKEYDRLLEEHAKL
Nature of the assay: pull-down; IMAC pull-down after denaturing (6M guanidinium-HCl) and renaturing (20 mM Tris-HCl pH 8.0, 75 mM NaCl, 2 mM TCEP) the two proteins together; Ni-NTA beads, 4 °C, washes up to 40 mM imidazole, elution 200 mM imidazole; both purified.

B1: BAP29 full-length C-terminal cytoplasmic region (residues 125-237), untagged (protein)
chain: TQLAKELSNKGVLKTQAENTNKAAKKFMEENEKLKRILKSHGKDEECVLEAENKKLVEDQEKLKTELRKTSDALSKAQNDVMEMKMQSERLSKEYDQLLKEHSELQDRLERGN
Consider B1, for which, in assay [1], the binding entry is given as “no binding”.

B2: BAP31 full-length C-terminal cytoplasmic region (residues 124-242), untagged (domain or fragment, human, UniProt P51572 124-242, looked up)
chain: SQQATLLASNEAFKKQAESASEAAKKYMEENDQLKKGAAVDGGKLDVGNAEVKLEEENRSLKADLQKLKDELASTKQKLEKAENQVLAMRKQSEGLTKEYDRLLEEHAKLQAAVDGPMD
notes: BAP31, human, UniProt P51572, C-terminal cytoplasmic region, residues 124-242; also called BAP31 Cyt; BAP31 full-length cytoplasmic; source: E. coli BL21(DE3) Rosetta 2, purified (IMAC, TEV cleavage, reverse IMAC, gel filtration); not shown: His6, N-terminal, cleaved
On to B2, for which, in assay [2], the binding result was “no binding”.

B3: BAP29 vDED (variant of death effector domain of human BAP29, residues 168-229), untagged (domain or fragment, UniProt Q9UHQ4 168-229)
chain: DEECVLEAENKKLVEDQEKLKTELRKTSDALSKAQNDVMEMKMQSERLSKEYDQLLKEHSEL
On to B3, for which the binding result in assay [3] was “no binding (tested: 75 µM)”; in assay [4], “no binding (tested: 75 µM)”; in assay [5], “no binding”; in assay [6], “no binding”; in assay [7] it was “no binding”.
